Experimental data published in patent US20240409647A1, “BISPECIFIC BINDING PROTEINS AGAINST ALARMINS AND USES THEREOF” (SINOMAB BIOSCIENCE LIMITED, priority 2022, published 2024).
Results are given in words; binding and its absence hold for the method and conditions named. A result given as binding can be weak or reduced; the word gives no strength.

What was measured:
[1] = target: human IL-17RB protein (recombinant, R&D systems) (human); test: ELISA, coated antigen 2 µg/mL, binder at 33.5 nM
[2] = target: human IL-17RB protein (recombinant, R&D systems) (human); test: ELISA, coated IL-17RB

B1: SM17 (antibody, human IgG4 S228P, kappa, V domains shown)
VH: QVQLVQSGAEVKKPGASVKVSCKASGYTFISYWMNWVRQAPGQGLEWMGRIDPYDSEIQYNQKFKDRVTMTRDTSISTAYMELSRLRSDDTAVYYCARSGGFDWFAYWGQGTLVTVSS
VL: DIQMTQSPSSLSASVGDRVTITCRASENINSNLAWYQQKPGKAPKLLLYDVTNLADGVPSRFSGSGSGTDYTLTISSLQPEDFATYYCQHFWGPPYTFGGGTKVEIKR
Q: What does the source list for B1?
A: binding [1]: binds; binding [2]: binds
